From patent publication US7713937B2 (Cara Therapeutics, Inc., priority 2006, dated 2010) come the findings set out here.

One series has as its system mice. The series is described as follows: Inhibition of locomotion in mice (locomotion reduction assay, sedation). The class given is in vivo, mouse. As to conditions: ED50 locomotion / ED50 writhing, subcutaneous. As for the experimental part: To determine the potential sedative effect of test compounds, the extent of locomotion after the administration of the test compound or vehicle control can be determined and compared with a specialized apparatus designed for this purpose (Opto-Varimex Activity Meter). At the start of each experiment, each mouse was weighed and examined to determine good health. […] The subcutaneous injection was performed in the back of the neck of the mouse, pinched in a “tent” to allow proper access for the syringe needle. After injection, each animal was placed individually in Plexiglas boxes (43 cm×43 cm) inside the Opto-Varimex Activity Meter apparatus. Before the animal was placed in the apparatus, a thin layer of SANI-CHIPS rodent bedding was placed on the bottom of the Plexiglas box to provide a comfortable environment. Each Opto-Varimex Activity Meter apparatus was then turned on and data acquisition begun by the ATM3 Auto-Track System. The data were processed and results expressed in the same way as described for the writhing assay data above.
Background: Writhing tests count abdominal constrictions after an irritant is injected.

The nature of series [1]: general procedure: Fmoc solid-phase peptide synthesis; 2-Chlorotrityl chloride resin; DIC/HOBt, HATU/DIEA, HBTU/DIEA, TBTU/DIEA, PyBOP/DIEA, BOP/DIEA. The following applies: whole synthesis, scale 0.8 mmol.
Series [2] is described as follows: general procedure: Fmoc solid-phase peptide synthesis; p-nitrophenylcarbonate Wang resin (homopiperazine carbamate Wang); 2-Chlorotrityl chloride resin; Rink Amide AM resin; 4; DIC/HOBt, HATU/DIEA, HBTU/DIEA, TBTU/DIEA, PyBOP/DIEA, BOP/DIEA. The following applies: whole synthesis, HPLC analysis, scale of the general procedure 0.15-1 mmol, 500 g resin for the large batch of compound (2).

In the case of `CC(C)C[C@@H](NC(=O)[C@@H](Cc1ccccc1)NC(=O)[C@H](N)Cc1ccccc1)C(=O)N[C@H](CCCN)C(=O)N1CCCN(C2=NCCN2)CC1` [Compound (54), D-Phe-D-Phe-D-Leu-D-Orn-[4-(4,5-dihydro-1H-imidazol-2-yl)homopiperazine amide]], the “therapeutic ratio of the analgesic effect over the sedative effect” value in the series on mice came out at 42.86 fold. Take “D-Phe-D-Phe-D-Leu-(δ-iPr)D-Orn-[ω(4-aminopiperidine-4-carboxylic acid)]-OH”: the isolated mass in series [1] came to 336 mg. The “final HPLC purity” value in series [2] is “purity 98.9%”.
